Test results from the supplement of paper PMC10849652.
This is one part of the list.

Protein sequences, listed by entry. Tags and fused reporters are not part of them. Lines headed by an entry give the natural chain unless they say otherwise; changes in a name come on top.
UniProt O75821, whole entry, looked up: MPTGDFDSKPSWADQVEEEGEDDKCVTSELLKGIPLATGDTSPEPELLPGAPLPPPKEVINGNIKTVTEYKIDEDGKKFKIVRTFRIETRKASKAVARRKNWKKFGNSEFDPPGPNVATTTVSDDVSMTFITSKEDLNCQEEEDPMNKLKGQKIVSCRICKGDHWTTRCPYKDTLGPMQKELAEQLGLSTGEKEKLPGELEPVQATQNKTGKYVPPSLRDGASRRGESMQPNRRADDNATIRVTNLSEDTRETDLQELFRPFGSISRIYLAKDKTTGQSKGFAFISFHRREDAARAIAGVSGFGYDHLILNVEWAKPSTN
UniProt O00303, whole entry, looked up: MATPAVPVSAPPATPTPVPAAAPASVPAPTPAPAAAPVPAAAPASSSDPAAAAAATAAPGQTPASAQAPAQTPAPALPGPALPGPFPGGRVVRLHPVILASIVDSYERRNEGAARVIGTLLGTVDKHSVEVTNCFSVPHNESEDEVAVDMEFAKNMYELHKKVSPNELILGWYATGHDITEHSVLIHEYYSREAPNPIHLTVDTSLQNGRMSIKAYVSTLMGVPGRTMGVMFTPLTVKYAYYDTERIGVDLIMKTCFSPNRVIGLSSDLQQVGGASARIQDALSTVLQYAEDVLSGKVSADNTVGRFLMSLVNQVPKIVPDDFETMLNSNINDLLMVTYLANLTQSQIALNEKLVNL
UniProt Q5VTE0, whole entry, looked up: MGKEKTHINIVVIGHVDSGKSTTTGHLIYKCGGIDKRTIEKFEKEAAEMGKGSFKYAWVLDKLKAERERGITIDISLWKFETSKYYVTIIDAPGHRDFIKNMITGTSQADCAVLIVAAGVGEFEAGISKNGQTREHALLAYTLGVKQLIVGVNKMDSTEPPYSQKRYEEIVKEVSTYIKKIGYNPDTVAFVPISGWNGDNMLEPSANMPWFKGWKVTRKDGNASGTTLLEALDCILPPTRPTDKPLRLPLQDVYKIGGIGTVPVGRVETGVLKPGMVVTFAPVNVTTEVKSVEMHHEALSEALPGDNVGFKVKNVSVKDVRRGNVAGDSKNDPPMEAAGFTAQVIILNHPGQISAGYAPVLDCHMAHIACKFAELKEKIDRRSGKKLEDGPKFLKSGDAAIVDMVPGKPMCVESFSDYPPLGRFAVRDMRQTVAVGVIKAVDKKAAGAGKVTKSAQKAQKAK
UniProt Q13542: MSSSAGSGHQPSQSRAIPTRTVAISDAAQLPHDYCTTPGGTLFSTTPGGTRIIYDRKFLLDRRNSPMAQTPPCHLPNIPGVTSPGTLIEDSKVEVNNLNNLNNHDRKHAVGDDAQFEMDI
UniProt Q15029: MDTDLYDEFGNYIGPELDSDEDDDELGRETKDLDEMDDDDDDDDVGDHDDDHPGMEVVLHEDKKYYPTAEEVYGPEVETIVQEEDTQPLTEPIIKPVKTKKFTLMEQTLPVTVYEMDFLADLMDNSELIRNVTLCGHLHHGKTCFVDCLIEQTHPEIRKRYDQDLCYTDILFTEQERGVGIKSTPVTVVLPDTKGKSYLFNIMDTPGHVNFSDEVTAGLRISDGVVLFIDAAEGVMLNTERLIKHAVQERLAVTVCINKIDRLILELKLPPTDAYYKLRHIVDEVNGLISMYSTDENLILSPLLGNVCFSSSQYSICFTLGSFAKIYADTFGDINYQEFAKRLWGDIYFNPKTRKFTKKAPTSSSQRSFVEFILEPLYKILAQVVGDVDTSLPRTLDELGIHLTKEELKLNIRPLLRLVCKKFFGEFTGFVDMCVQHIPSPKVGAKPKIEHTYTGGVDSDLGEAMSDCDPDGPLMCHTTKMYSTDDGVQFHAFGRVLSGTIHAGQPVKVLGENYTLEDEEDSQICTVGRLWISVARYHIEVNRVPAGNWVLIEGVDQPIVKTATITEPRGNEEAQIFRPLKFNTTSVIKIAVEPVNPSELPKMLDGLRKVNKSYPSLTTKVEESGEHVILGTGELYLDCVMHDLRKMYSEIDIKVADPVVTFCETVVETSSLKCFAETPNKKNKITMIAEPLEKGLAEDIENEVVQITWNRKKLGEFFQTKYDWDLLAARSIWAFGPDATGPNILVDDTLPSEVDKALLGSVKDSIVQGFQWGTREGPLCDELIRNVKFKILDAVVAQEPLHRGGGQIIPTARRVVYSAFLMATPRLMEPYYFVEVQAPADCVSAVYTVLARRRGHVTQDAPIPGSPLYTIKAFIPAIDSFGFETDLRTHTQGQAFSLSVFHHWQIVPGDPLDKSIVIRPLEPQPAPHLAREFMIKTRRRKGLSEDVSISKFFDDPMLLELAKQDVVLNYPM
UniProt P13929, whole entry, looked up: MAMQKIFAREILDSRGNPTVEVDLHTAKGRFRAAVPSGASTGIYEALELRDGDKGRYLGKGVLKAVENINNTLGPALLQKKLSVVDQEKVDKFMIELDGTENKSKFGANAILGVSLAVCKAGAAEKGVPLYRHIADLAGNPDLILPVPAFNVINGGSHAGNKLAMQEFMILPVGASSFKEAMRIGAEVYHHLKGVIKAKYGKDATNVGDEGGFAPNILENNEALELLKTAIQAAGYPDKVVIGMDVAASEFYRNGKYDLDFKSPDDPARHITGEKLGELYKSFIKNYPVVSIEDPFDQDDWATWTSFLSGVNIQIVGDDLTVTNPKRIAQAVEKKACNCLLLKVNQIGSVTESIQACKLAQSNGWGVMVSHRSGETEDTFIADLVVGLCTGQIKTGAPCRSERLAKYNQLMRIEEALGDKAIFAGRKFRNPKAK
UniProt P20042, whole entry, looked up: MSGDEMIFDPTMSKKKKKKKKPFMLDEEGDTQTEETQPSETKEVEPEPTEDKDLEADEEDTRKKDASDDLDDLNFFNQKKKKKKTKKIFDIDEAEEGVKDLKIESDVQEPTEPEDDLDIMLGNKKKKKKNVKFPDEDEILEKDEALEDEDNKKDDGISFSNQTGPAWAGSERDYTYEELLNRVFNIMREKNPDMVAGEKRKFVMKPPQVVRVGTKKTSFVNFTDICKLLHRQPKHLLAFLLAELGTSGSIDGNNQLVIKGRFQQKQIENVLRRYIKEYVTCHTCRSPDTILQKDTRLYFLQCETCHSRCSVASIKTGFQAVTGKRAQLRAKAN
UniProt Q9NPA8: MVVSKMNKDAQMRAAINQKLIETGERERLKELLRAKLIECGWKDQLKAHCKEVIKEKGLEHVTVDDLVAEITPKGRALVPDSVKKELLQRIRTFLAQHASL
UniProt O15372, whole entry, looked up: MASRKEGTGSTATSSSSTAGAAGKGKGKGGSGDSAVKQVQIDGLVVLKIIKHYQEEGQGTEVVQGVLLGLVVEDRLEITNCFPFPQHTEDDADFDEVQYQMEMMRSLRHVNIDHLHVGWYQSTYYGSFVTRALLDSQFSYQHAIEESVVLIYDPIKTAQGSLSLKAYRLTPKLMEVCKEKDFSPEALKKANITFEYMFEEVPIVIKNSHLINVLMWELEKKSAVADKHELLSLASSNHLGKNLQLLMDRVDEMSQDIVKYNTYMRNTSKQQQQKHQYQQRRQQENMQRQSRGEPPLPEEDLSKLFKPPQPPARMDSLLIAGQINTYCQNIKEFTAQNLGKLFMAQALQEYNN
UniProt O43768: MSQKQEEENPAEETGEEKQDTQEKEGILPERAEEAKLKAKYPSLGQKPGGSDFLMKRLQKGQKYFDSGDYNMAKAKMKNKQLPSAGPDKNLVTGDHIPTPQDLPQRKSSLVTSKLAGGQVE
UniProt Q9UHY7: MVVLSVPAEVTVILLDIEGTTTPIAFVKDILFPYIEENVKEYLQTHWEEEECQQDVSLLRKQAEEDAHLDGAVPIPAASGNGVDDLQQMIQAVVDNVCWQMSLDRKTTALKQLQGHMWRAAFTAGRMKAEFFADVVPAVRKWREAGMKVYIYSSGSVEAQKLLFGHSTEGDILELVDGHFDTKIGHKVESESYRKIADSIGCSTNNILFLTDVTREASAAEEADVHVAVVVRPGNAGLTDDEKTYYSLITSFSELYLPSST
UniProt Q9BV81: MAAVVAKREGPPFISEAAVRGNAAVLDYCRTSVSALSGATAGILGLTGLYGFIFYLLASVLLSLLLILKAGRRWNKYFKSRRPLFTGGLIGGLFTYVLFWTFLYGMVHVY
UniProt Q09472, whole entry, looked up: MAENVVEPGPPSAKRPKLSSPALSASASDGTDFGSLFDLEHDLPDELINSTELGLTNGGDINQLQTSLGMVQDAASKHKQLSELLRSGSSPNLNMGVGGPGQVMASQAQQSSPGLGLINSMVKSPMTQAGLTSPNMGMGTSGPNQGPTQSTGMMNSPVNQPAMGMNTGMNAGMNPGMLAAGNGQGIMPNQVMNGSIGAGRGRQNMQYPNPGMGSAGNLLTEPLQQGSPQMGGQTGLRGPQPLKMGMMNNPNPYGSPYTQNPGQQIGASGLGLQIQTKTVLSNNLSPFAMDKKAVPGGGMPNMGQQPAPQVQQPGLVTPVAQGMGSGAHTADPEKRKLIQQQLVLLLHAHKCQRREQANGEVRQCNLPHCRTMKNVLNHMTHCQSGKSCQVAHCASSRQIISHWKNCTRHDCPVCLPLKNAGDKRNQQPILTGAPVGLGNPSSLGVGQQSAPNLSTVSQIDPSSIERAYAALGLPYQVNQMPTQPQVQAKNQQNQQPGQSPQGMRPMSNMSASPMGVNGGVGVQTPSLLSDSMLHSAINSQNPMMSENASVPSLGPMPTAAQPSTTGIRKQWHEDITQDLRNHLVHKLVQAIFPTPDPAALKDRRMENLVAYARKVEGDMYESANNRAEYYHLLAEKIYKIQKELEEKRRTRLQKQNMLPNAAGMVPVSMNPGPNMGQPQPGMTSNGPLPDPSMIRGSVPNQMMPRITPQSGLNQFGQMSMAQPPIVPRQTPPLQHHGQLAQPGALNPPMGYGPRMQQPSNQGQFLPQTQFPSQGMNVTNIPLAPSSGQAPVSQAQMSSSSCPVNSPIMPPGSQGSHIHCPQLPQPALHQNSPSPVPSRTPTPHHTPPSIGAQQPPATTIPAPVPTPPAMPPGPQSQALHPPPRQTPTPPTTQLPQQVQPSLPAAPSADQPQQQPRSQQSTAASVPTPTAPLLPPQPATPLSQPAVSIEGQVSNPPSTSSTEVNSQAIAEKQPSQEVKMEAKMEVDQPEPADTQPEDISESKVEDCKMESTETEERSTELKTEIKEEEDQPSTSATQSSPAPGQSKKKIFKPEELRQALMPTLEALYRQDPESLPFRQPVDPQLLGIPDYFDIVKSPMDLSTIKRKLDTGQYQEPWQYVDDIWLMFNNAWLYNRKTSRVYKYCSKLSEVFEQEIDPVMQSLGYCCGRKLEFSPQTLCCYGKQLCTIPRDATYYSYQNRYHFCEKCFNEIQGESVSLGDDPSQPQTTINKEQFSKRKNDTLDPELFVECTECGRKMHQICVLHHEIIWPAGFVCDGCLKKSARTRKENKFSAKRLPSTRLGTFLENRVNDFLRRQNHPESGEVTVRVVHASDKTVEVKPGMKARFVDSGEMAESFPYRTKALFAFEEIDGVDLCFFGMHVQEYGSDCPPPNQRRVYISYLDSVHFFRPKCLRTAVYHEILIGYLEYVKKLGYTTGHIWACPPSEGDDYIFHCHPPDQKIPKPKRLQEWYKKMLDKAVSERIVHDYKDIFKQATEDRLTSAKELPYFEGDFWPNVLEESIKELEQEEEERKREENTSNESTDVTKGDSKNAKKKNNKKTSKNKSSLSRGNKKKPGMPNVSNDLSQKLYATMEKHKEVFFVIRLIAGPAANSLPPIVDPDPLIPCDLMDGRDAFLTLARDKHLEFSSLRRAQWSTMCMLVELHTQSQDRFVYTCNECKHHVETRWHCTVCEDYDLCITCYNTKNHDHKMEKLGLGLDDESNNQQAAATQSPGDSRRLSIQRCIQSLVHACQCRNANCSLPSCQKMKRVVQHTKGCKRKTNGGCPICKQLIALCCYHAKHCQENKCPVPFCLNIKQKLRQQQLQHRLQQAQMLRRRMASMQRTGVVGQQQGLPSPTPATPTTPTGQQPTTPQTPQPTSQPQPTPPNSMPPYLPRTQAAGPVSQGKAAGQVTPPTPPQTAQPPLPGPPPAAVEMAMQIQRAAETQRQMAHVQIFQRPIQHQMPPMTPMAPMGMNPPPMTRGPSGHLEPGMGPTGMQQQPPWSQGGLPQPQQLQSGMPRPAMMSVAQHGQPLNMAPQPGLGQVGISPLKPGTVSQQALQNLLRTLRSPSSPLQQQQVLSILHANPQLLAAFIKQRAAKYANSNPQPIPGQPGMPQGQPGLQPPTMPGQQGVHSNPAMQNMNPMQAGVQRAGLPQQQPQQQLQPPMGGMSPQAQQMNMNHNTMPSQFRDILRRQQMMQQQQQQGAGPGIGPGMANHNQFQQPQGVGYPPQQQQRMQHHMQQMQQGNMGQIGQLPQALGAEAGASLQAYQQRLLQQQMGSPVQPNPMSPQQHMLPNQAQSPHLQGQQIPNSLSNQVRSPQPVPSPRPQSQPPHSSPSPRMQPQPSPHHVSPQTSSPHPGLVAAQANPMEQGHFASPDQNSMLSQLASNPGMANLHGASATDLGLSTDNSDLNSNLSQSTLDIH

Assays:
Experiment in all cases: log2 fold change, soluble protein after heating vs DMSO (PISA); higher = thermal stabilisation; K562 cells, 10 uM, 30 min; active = over 0.2 and 3.5 SD of the protein, either way, in both replicates (recomputed)
[1] = compound: CC1=C(C=C(C=C1)NC(=O)C2=CC(=CC=C2)C(C)(C)C#N)NC3=CC4=C(C=C3)N=CN(C4=O)C
Method in brief: (§1)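 Soluble protein was quantified by TMTpro 16plex LC-MS/MS after channel sums were equalised. It was obtained as the supernatant after 21,000xg for 90 min from pooled aliquots of K562 cells (2×10^6 cells/mL, 10 μM compound, 30 min) heated for 3 min across 48°C-58°C and extracted in PBS with 0.5% NP-40 at 4°C. Thermal stability values are relative to control samples and come from duplicates. They are given as log2 fold changes.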

[2] = compound: CC1=C(C=C(C=C1)NC(=O)C2=CC(=CC=C2)N(C)C)NC(=O)C3=CC=C(C=C3)O
Method in brief: as §1

[3] = compound: CC1=CC=C(C=C1)SC2=C3C=C(SC3=CN=C2)C(=O)N
Method in brief: as §1

[4] = compound: CC1=NC(=CC=C1)C2=C(N=C(N2)C(C)(C)C)C3=CC4=NC=CN=C4C=C3
Method in brief: as §1

Nexturastat A = compound: CCCCN(Cc1ccc(C(=O)NO)cc1)C(=O)Nc1ccccc1 [Nexturastat A]
Method in brief: as §1

vemurafenib = compound: CCCS(=O)(=O)Nc1ccc(F)c(C(=O)c2c[nH]c3ncc(-c4ccc(Cl)cc4)cc23)c1F [vemurafenib]
Method in brief: as §1

[5] = compound: CCCS(=O)(=O)Nc1ccc(F)c(C(=O)c2c[nH]c3ncc(Cl)cc23)c1F
Method in brief: as §1

[6] = compound: CCCc1cc(C)[nH]c(=O)c1CNC(=O)c1cc(-c2ccnc(N3CCN(C)CC3)c2)cc2c1cnn2C(C)C
Method in brief: as §1

givinostat = compound: CCN(CC)Cc1ccc2cc(COC(=O)Nc3ccc(C(=O)NO)cc3)ccc2c1 [givinostat]
Method in brief: as §1

barasertib = compound: CCN(CCCOc1ccc2c(Nc3cc(CC(=O)Nc4cccc(F)c4)[nH]n3)ncnc2c1)CCOP(=O)(O)O [barasertib]
Method in brief: as §1

[7] = compound: CC[C@@H]1C(=O)N(C)c2cnc(Nc3ccc(C(=O)NC4CCN(C)CC4)cc3OC)nc2N1C1CCCC1
Method in brief: as §1

volasertib = compound: CC[C@@H]1C(=O)N(C)c2cnc(Nc3ccc(C(=O)N[C@H]4CC[C@H](N5CCN(CC6CC6)CC5)CC4)cc3OC)nc2N1C(C)C [volasertib]
Method in brief: as §1

[8] = compound: CC[C@H](C)N1C=C(C2=C(C=C(C=C21)C3=CN=C(C=C3)N4CCNCC4)C(=O)NCC5=C(C=C(NC5=O)C)C)C
Method in brief: as §1

epoxomicin = compound: CC[C@H](C)[C@@H](C(=O)N[C@@H]([C@@H](C)O)C(=O)N[C@@H](CC(C)C)C(=O)[C@]1(CO1)C)NC(=O)[C@H]([C@@H](C)CC)N(C)C(=O)C [epoxomicin]
Method in brief: as §1

[9] = compound: CCn1c(C(=O)N(C2CC2)C2CC2)cc2c3c(ncn3C)c(Nc3cc(C)n(C)n3)nc21
Method in brief: as §1

[10] = compound: CCn1cc(-c2ccnc3[nH]c(-c4cccc(CN(C)C)c4)cc23)c(-c2ccc(NC(=O)N(C)C)cc2)n1
Method in brief: as §1

[11] = compound: CN(C)CC(=O)Nc1ccc2[nH]c(=O)c3ccccc3c2c1
Method in brief: as §1

rosiglitazone = compound: CN(CCOC1=CC=C(C=C1)C[C@H]2C(=O)NC(=O)S2)C3=CC=CC=N3 (racemic) [rosiglitazone]
Method in brief: as §1

[12] = compound: CN1C2=C(C3=C1C(=O)N(N=C3)CC4=CC(=CC=C4)N)SC(=C2)S(=O)C
Method in brief: as §1

[13] = compound: CN1CCC(CNc2ccc3ncc(-c4cccc(OC(F)(F)F)c4)n3n2)CC1
Method in brief: as §1

Measured: log2 fold change

EIF3G (UniProt O75821)
inactive: [1] 0.017 | [2] -0.038 | [3] -0.03 | [4] -0.017 | Nexturastat A 0.069 | vemurafenib 0.02 | [5] 0.043 | [6] 0.04 | givinostat 0.055 | barasertib 0.007 | [7] -0.025 | volasertib -0.213 | [8] 0.028 | epoxomicin -0.026 | [9] -0.018 | [10] -0.013 | [11] 0.012 | rosiglitazone 0.019 | [12] 0.045 | [13] -0.129

EIF3F (UniProt O00303)
inactive: [1] 0.113 | [2] -0.041 | [3] -0.006 | [4] 0.023 | Nexturastat A 0.09 | vemurafenib 0.023 | [5] 0.104 | [6] 0.053 | givinostat 0.034 | barasertib 0.057 | [7] -0.01 | volasertib -0.23 | [8] 0.064 | epoxomicin 0.06 | [9] -0.02 | [10] -0.026 | [11] 0.043 | rosiglitazone 0.008 | [12] 0.042 | [13] -0.005

EML4 (UniProt Q9HC35)
inactive: [1] -0.019 | [2] -0.016 | [3] 0.022 | [4] -0.076 | Nexturastat A 0.215 | vemurafenib -0.034 | [5] 0.013 | [6] 0.074 | givinostat 0.039 | barasertib 0.023 | [7] 0.094 | volasertib -0.031 | [8] 0.058 | epoxomicin -0.023 | [9] -0.104 | [10] 0.022 | [11] -0.004 | rosiglitazone 0.052 | [12] 0.131 | [13] -0.004

EEF1A1P5 (UniProt Q5VTE0)
inactive: [1] -0.003 | [2] 0.003 | [3] 0.008 | [4] 0.026 | Nexturastat A -0.021 | vemurafenib -0.01 | [5] -0.005 | [6] -0.239 | givinostat -0.014 | barasertib 0.01 | [7] -0.001 | volasertib 0.051 | [8] -0.022 | epoxomicin 0.047 | [9] -0.003 | [10] -0.007 | [11] -0.013 | rosiglitazone 0.054 | [12] -0.025 | [13] -0.078

EIF4H (UniProt Q15056)
inactive: [1] 0.03 | [2] -0.009 | [3] 0 | [4] 0.062 | Nexturastat A 0.007 | vemurafenib -0.017 | [5] 0.003 | [6] 0.033 | givinostat -0.032 | barasertib 0.005 | [7] -0.089 | volasertib -0.161 | [8] -0.009 | epoxomicin 0.006 | [9] -0.012 | [10] 0.03 | [11] -0.06 | rosiglitazone 0.016 | [12] -0.038 | [13] -0.034

EIF4EBP2 (UniProt Q13542)
inactive: [1] -0.009 | [2] -0.158 | [3] -0.032 | [4] -0.109 | Nexturastat A -0.075 | vemurafenib 0.197 | [5] 0.039 | [6] 0.009 | givinostat 0.029 | barasertib 0.071 | [7] 0.049 | volasertib 0.04 | [8] -0.041 | epoxomicin 0.263 | [9] -0.039 | [10] -0.022 | [11] 0.167 | rosiglitazone 0.021 | [12] -0.017 | [13] -0.058

EFTUD2 (UniProt Q15029)
inactive: [1] -0.009 | [2] 0.015 | [3] 0.021 | [4] -0.018 | Nexturastat A -0.027 | vemurafenib -0.015 | [5] 0.02 | [6] -0.024 | givinostat -0.045 | barasertib -0.044 | [7] 0.037 | volasertib 0.047 | [8] -0.058 | epoxomicin -0.039 | [9] 0.028 | [10] 0.032 | [11] -0.016 | rosiglitazone -0.02 | [12] -0.033 | [13] 0.125

ENO3 (UniProt P13929)
inactive: [1] 0.089 | [2] 0.015 | [3] 0.042 | [4] 0.039 | Nexturastat A 0.017 | vemurafenib 0.044 | [5] 0.084 | [6] -0.004 | givinostat -0.017 | barasertib -0.033 | [7] -0.053 | volasertib 0.014 | [8] -0.008 | epoxomicin 0.148 | [9] -0.051 | [10] -0.036 | [11] 0.018 | rosiglitazone 0.002 | [12] -0.115 | [13] 0.094

EIF2S2 (UniProt P20042)
inactive: [1] 0.002 | [2] 0.012 | [3] -0.036 | [4] -0.039 | Nexturastat A 0.136 | vemurafenib -0.055 | [5] -0.017 | [6] 0.039 | givinostat 0.019 | barasertib 0.001 | [7] 0.072 | volasertib 0.09 | [8] 0.016 | epoxomicin -0.096 | [9] -0.005 | [10] 0.031 | [11] -0.071 | rosiglitazone -0.029 | [12] 0.072 | [13] 0.122

ENY2 (UniProt Q9NPA8)
inactive: [1] 0.067 | [2] -0.033 | [3] 0.042 | [4] 0.053 | Nexturastat A -0.1 | vemurafenib -0.002 | [5] 0.023 | [6] -0.064 | givinostat -0.073 | barasertib -0.006 | [7] 0.064 | volasertib 0.002 | [8] 0.013 | epoxomicin 0.045 | [9] 0.048 | [10] 0.016 | [11] -0.061 | rosiglitazone 0.015 | [12] -0.081 | [13] 0.038

EIF3H (UniProt O15372)
inactive: [1] -0.014 | [2] -0.003 | [3] 0.015 | [4] 0.021 | Nexturastat A 0.047 | vemurafenib 0.012 | [5] 0.02 | [6] 0.017 | givinostat 0.046 | barasertib 0.035 | [7] -0.077 | volasertib -0.22 | [8] 0.054 | epoxomicin 0.028 | [9] -0.021 | [10] 0.014 | [11] 0.019 | rosiglitazone 0.014 | [12] 0.069 | [13] -0.106

ENSA isoform 3 (UniProt O43768)
inactive: [1] -0.039 | [2] -0.013 | [3] -0.004 | [4] 0.055 | Nexturastat A -0.187 | vemurafenib -0.024 | [5] -0.032 | [6] -0.03 | givinostat -0.109 | barasertib -0.012 | [7] -0.019 | volasertib 0.147 | [8] -0.044 | epoxomicin -0.006 | [9] 0.021 | [10] 0.011 | [11] -0.043 | rosiglitazone 0.001 | [12] -0.049 | [13] -0.04

ELOF1 (UniProt P60002)
inactive: [1] 0.061 | [2] -0.066 | [3] -0.084 | [4] 0.055 | Nexturastat A 0.073 | vemurafenib -0.065 | [5] -0.052 | [6] -0.046 | givinostat -0.424 | barasertib -0.018 | [7] -0.097 | volasertib 0.099 | [8] 0.02 | epoxomicin -0.045 | [9] -0.064 | [10] 0.169 | [11] 0.058 | rosiglitazone -0.079 | [12] 0.026 | [13] 0.225

ENOPH1 (UniProt Q9UHY7)
inactive: [1] 0.062 | [2] -0.017 | [3] 0.029 | [4] 0.008 | Nexturastat A 0.025 | vemurafenib 0.154 | [5] 0.096 | [6] 0.049 | givinostat 0.152 | barasertib 0.1 | [7] -0.042 | volasertib -0.182 | [8] 0.103 | epoxomicin 0.027 | [9] -0.154 | [10] -0.15 | [11] 0.031 | rosiglitazone 0.125 | [12] -0.031 | [13] -0.356

EMC6 (UniProt Q9BV81)
inactive: [1] -0.01 | [2] -0.025 | [3] 0.034 | [4] 0.001 | Nexturastat A 0.047 | vemurafenib 0.018 | [5] 0.076 | [6] 0.001 | givinostat -0.108 | barasertib 0.049 | [7] 0.107 | volasertib 0.017 | [8] 0.007 | epoxomicin 0.092 | [9] -0.041 | [10] -0.055 | [11] 0.006 | rosiglitazone -0.004 | [12] -0.089 | [13] 0.058

2 entries drawn at random from those above, as already listed:
EMC6 (UniProt Q9BV81)
inactive: [1] -0.01 | [2] -0.025 | [3] 0.034 | [4] 0.001 | Nexturastat A 0.047 | vemurafenib 0.018 | [5] 0.076 | [6] 0.001 | givinostat -0.108 | barasertib 0.049 | [7] 0.107 | volasertib 0.017 | [8] 0.007 | epoxomicin 0.092 | [9] -0.041 | [10] -0.055 | [11] 0.006 | rosiglitazone -0.004 | [12] -0.089 | [13] 0.058

ELOF1 (UniProt P60002)
inactive: [1] 0.061 | [2] -0.066 | [3] -0.084 | [4] 0.055 | Nexturastat A 0.073 | vemurafenib -0.065 | [5] -0.052 | [6] -0.046 | givinostat -0.424 | barasertib -0.018 | [7] -0.097 | volasertib 0.099 | [8] 0.02 | epoxomicin -0.045 | [9] -0.064 | [10] 0.169 | [11] 0.058 | rosiglitazone -0.079 | [12] 0.026 | [13] 0.225

Carrying on.

EP300 (UniProt Q09472)
inactive: [1] -0.038 | [2] 0.016 | [3] 0.042 | [4] -0.062 | Nexturastat A 0.036 | vemurafenib 0.041 | [5] 0.055 | [6] 0.073 | givinostat -0.004 | barasertib -0.006 | [7] 0.045 | volasertib 0.016 | [8] 0.043 | epoxomicin -0.006 | [9] -0.028 | [10] -0.104 | [11] -0.003 | rosiglitazone -0.007 | [12] -0.015 | [13] 0.068
